Source: article PMC7862277
Results are given in words; binding and its absence hold for the method and conditions named. Binding seen in cells or lysates may run through a third protein. Some results given as binding are weak or reduced against the parent protein; the word gives no strength. For part of these data: Sequences can lack the tags named with a protein.

Sequences of proteins named here, by UniProt entry; tags and fusion partners are left off.
UniProt P03372: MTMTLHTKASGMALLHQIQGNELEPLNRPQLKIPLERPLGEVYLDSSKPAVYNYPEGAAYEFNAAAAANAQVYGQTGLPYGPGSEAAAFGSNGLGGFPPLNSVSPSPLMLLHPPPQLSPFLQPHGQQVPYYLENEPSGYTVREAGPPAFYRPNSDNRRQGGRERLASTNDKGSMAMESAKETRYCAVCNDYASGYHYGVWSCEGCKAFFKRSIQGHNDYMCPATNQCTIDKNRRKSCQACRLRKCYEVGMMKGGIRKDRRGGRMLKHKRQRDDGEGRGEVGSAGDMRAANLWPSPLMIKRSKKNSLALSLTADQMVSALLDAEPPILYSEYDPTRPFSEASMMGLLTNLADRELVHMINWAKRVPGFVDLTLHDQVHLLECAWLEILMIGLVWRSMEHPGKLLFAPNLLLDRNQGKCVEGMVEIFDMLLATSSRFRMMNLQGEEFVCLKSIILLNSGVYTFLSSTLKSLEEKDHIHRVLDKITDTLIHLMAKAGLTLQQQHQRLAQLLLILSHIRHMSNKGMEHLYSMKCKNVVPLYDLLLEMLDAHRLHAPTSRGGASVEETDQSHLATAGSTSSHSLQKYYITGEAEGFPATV

T1: FLAG-tagged NUPR1 (human) (UniProt O60356)
T1 sequence: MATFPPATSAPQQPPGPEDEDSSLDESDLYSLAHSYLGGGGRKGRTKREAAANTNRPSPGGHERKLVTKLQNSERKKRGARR

B1: NUPR1, endogenous (protein, UniProt O60356 1-82)
chain: T1 sequence

Tests used:
[1] = molecular target: T1, FLAG-tagged NUPR1 (human); test: proximity ligation; Duolink In Situ Red kit in MCF-7TamR cells with FLAG-tagged NUPR1 and endogenous ESR1; cells treated with vehicle (ethanol) or 0.6 μM Tam for 24 h
[2] = molecular target: T1, FLAG-tagged NUPR1 (human); test: co-IP; whole-cell lysates of MCF-7TamR cells transfected with FLAG-tagged NUPR1, ESR1 or ESR1 deletions, with or without Tam treatment for 48 h; IP with M2 anti-FLAG antibody, Western blotting
[3] = molecular target: FLAG-tagged ESR1 (full-length) (UniProt P03372); test: as above

Row | Molecule | binding [1] | binding [2] | binding [3]
1 | ESR1 (estrogen receptor alpha), endogenous (from UniProt P03372 1-595) | binds | binds | 
2 | B1 |  |  | binds
